These are yes or no findings as the source states them, for the method shown. Some results given as binding are weak or reduced against the parent protein; the word gives no strength. One block for each binder: values may come before it. Where no end group is shown, it is not given here. The star is where a group is joined. Biotin = O=C1N[C@H]2[C@H](CS[C@H]2CCCCC(=O)*)N1
Molecular target: T1, Mouse P2 peptide (mouse)
T1 sequence (peptide): YSMKETTMKIIPFNRLSIG
Assay: ELISA

binding: binds
B1: Fab of antibody clone 60143 (ADI-60143 Fab) (Fab, V domains shown)
VH: QVQLVQSGAEVKKPGASVKVSCKASGYTFTSTWIHWVRQAPGQGLEWIGLIDPSDSYTNYNQKFRGRATLTVDTSTSTAYMELSSLRSEDTAVYYCASSKPTGGWGQGTTVTVSS
VL: DIVMTQSPLSLPVTPGEPASISCRSSKSLLHSSGITYLSWYLQKPGQSPQLLIYQMSNLASGVPDRFSGSGSGTDFTLKISRVEAEDVGVYYCAQNLELPLTFGGGTKVEIKR
notes: The crystal model holds chain H residues 1-127 and 134-214 and chain L residues 1-213; not shown: The papain cleavage limit is not stat

binding: binds
B2: antibody clone 60143 (full length ADI-60143 IgG) (antibody, V domains shown)
VH: B1 VH
VL: B1 VL

— patent US20240279321A1 (THERINI BIO, published 2024)
